Among the data in paper doi:10.1101/2020.10.02.323600 are binding values, retold here.

This assay concerns the target GFP/PfAtg18 (Plasmodium falciparum) (UniProt Q8IJR6). Kind of assay: affinity purification with mass spectrometry.

No constants are given. Whether binding was seen depends on the method and setting. In cells and extracts the contact can be indirect. These calls come from enrichment with a bait or labelling near it, and not all partners need be listed.

B1: P. falciparum multi-drug resistance protein 1 (protein, UniProt Q7K6A5 1-1419)
chain: MGKEQKEKKDGNLSIKEEVEKELNKKSTAELFRKIKNEKISFFLPFKCLPAQHRKLLFISFVCAVLSGGTLPFFISVFGVILKNMNLGDDINPIILSLVSIGLVQFILSMISSYCMDVITSKILKTLKLEYLRSVFYQDGQFHDNNPGSKLRSDLDFYLEQVSSGIGTKFITIFTYASSFLGLYIWSLIKNARLTLCITCVFPLIYVCGVICNKKVKLNKKTSLLYNNNTMSIIEEALMGIRTVASYCGEKTILNKFNLSETFYSKYILKANFVEALHIGLINGLILVSYAFGFWYGTRIIINSATNQYPNNDFNGASVISILLGVLISMFMLTIILPNITEYMKALEATNSLYEIINRKPLVENNDDGETLPNIKKIEFKNVRFHYDTRKDVEIYKDLSFTLKEGKTYAFVGESGCGKSTILKLIERLYDPTEGDIIVNDSHNLKDINLKWWRSKIGVVSQDPLLFSNSIKNNIKYSLYSLKDLEAMENYYEENTNDTYENKNFSLISNSMTSNELLEMKKEYQTIKDSDVVDVSKKVLIHDFVSSLPDKYDTLVGSNASKLSGGQKQRISIARAIMRNPKILILDEATSSLDNKSEYLVQKTINNLKGNENRITIIIAHRLSTIRYANTIFVLSNRERSDNNNNNNNDDNNNNNNNNNNKINNEGSYIIEQGTHDSLMKNKNGIYHLMINNQKISSNKSSNNGNDNGSDNKSSAYKDSDTGNDADNMNSLSIHENENISNNRNCKNTAENEKEEKVPFFKRMFRRKKKAPNNLRIIYKEIFSYKKDVTIIFFSILVAGGLYPVFALLYARYVSTLFDFANLEYNSNKYSIYILLIAIAMFISETLKNYYNNKIGEKVEKTMKRRLFENILYQEMSFFDQDKNTPGVLSAHINRDVHLLKTGLVNNIVIFSHFIMLFLVSMVMSFYFCPIVAAVLTFIYFINMRVFAVRARLTKSKEIEKKENMSSGVFAFSSDDEMFKDPSFLIQEAFYNMHTVINYGLEDYFCNLIEKAIDYKNKGQKRRIIVNAALWGFSQSAQLFINSFAYWFGSFLIKRGTILVDDFMKSLFTFIFTGSYAGKLMSLKGDSENAKLSFEKYYPLMIRKSNIDVRDDGGIRINKNLIKGKVDIKDVNFRYISRPNVPIYKNLSFTCDSKKTTAIVGETGSGKSTFMNLLLRFYDLKNDHIILKNDMTNFQDYQNNNNNSLVLKNVNEFSNQSGSAEDYTVFNNNGEILLDDINICDYNLRDLRNLFSIVSQEPMLFNMSIYENIKFGREDATLEDVKRVSKFAAIDEFIESLPNKYDTNVGPYGKSLSGGQKQRIAIARALLREPKILLLDEATSSLDSNSEKLIEKTIVDIKDKADKTIITIAHRIASIKRSDKIVVFNNPDRNGTFVQSHGTHDELLSAQDGIYKKYVKLAK
Regarding B1, the binding entry is given as “binds”.
